# Results reported in PubChem BioAssay AID493014 (National Center for Advancing Translational Sciences (NCATS), 2011).
# Values joined by “and” are separate entries in the source; they are usually repeats but may differ in a detail not shown here. Equal values may be shown once. The campaign covered roughly 340,000 compounds. About 170 (0.05%) were called active. Inconclusive results, whose numbers are uncertain, are shown with a selection of clear calls. The call rests on the fitted dose curve; in most records, active means well fitted inhibition curve with a large enough effect in the signal ratio, with a control signal flat (not every such curve was filed as active); inconclusive means small, poorly fitted or top-dose-only effect, or effect the other way, or a change in a side signal; inactive means flat fitted curve, though single readings scatter; the % refers to the signal ratio. A potency beside an inconclusive call is a rough fit, not a confirmed value.
# Assay: qHTS Assay to Find Inhibitors of Chronic Active B-Cell Receptor Signaling;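 on activity change, negative = inhibition: plate controls were basal doxycycline-induced cells for no effect and cells given 10 µM MG132 for full effect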
# Settings: ABC-DLBCL IkBa-CBG/CBR reporter, luminescence ratio (green luciferase fused to IkBa over red control in TMD8 lymphoma cells), 4 h; activity change, negative = inhibition: at 46.1 µM (top of the series)
# How it was run: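 Compounds up to 46 uM were incubated four hours with TMD8 cells whose green CBG68 luciferase is fused to IkappaBalpha; red CBR luminescence normalised the signal, and concentration-effect curves were fitted to fusion, red and ratio data.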
# Potency means the concentration at half of the fitted maximal effect.
SMILES,"activity change, negative = inhibition",Potency
Cc1ccc(NC(=O)CSc2nnc3ccc(-c4cccnc4)nn23)cc1,inconclusive: -13.9%,–
O=C(CC1OC(=O)c2ccccc21)NC1CCCCC1 (centres undefined),–,"inconclusive: 15.8 µM [falling, partial curve]"
COc1cc(NC(=O)c2ccco2)c(OC)cc1NC(=O)Nc1cccc(Cl)c1,inconclusive: 10.6%,–
Cc1cc(Br)ccc1NC(=O)CN1CCN(c2ccccn2)CC1,inactive: -9.25%,–
C/[N+]([O-])=C/c1c(OCc2ccccc2)ccc2ccccc12,inconclusive: 8.84%,–
CCCCOC(=O)c1ccc(NC(=O)CSc2nncn2C)cc1,inconclusive: 5.41%,–
C#CCOCCOCCOCCNc1nc(N2CCN(C(=O)CCCCCCCCCCNC(=O)[C@H](CCCCN)n3cc(C)nn3)CC2)nc(N2CCN(C(=O)CCCCCCCCCCNC(=O)[C@H](CCCN=C(N)N)n3cc(C[C@@H](C)CC)nn3)CC2)n1,inconclusive: 24.9%,–
COCCNC(=S)Nc1ccc2nc(N3CCOCC3)cc(C)c2c1,inactive: -4.54%,–
Cc1cccc2sc(NC(=O)Cn3cccc3)nc12,inactive: 12.3%,–
COc1ccc(NC(=O)CN(C)C(=O)Cn2cnc3c2c(=O)n(C)c(=O)n3C)cc1,inactive: -2.23%,–
O=C(/C=C/c1ccc(Br)o1)NC(c1ccccc1)c1ccccc1,inconclusive: -12.7%,–
Cc1ccc(NC(=O)CSc2nc(=O)n(Cc3ccccn3)c3c2CCC3)cc1F,inconclusive: 29.5%,–
COc1cc(C(=O)NCc2ccc3c(c2)CCN3C(=O)c2ccc(Cl)cc2)cc(OC)c1OC,inactive: 23.6%,–
CC(C)c1nc(NCCN2CCOCC2)c(C#N)c2c1COC(C)(C)C2,inconclusive: 0.738%,–
COC(=O)C1=C(NC(=O)COc2ccc3ccccc3c2)CCS1,–,"inconclusive: 2.31 µM [falling, partial curve, poor fit]"
O=C1NCCn2ccc(=O)cc21,inactive: 7.14%,–
CCn1c2ccccc2c2cc(/C=N/NC(=O)c3ccccc3)ccc21,inconclusive: -18.4%,–
COc1cccc(CNC(=O)C(=O)NCC(c2ccco2)S(=O)(=O)c2ccccc2)c1 (centres undefined),–,"inconclusive: 22.4 µM [falling, single point]"
CC1(C)COC(/C=C/c2cccc([N+](=O)[O-])c2)=N1,–,"inconclusive: 11.2 µM [falling, partial curve, poor fit]"
CCCCNC(=O)N1CCCN(c2ccc(C#N)cn2)CC1,inactive: -3.95%,–
COc1ccc(C2CC(c3c(-c4ccccc4)c4cc(Cl)ccc4[nH]c3=O)=NN2C(=O)CCC(=O)O)cc1 (centres undefined),inconclusive: 24.4%,–

# Gathered by group: the compounds so far containing a Cl atom.
SMILES,"activity change, negative = inhibition",Potency
COc1cc(NC(=O)c2ccco2)c(OC)cc1NC(=O)Nc1cccc(Cl)c1,inconclusive: 10.6%,–
COc1cc(C(=O)NCc2ccc3c(c2)CCN3C(=O)c2ccc(Cl)cc2)cc(OC)c1OC,inactive: 23.6%,–
COc1ccc(C2CC(c3c(-c4ccccc4)c4cc(Cl)ccc4[nH]c3=O)=NN2C(=O)CCC(=O)O)cc1 (centres undefined),inconclusive: 24.4%,–

# Remaining list, next part:

SMILES,"activity change, negative = inhibition",Potency
C=C(c1ccccc1)c1ccc(N(C)C)cc1,inconclusive: 2.27%,–
Cn1c(=O)[nH]c(=O)c2c1nc(Br)n2CCCSc1nc2ccccc2o1,–,"inconclusive: 29.1 µM [cytotoxic, single point]"
O=C(CN1C(=O)NC2(CCCC2)C1=O)Nc1cc(Cl)ccc1N1CCCCC1,inactive: 0.246%,–
Cc1cc(C)c2cccc(N)c2n1,inactive: -13%,–
COc1ccccc1/C=C/C(=O)/C=C/c1ccccc1O,–,"inconclusive: 6.31 µM [falling, single point]"
CN(C(=O)c1ccccn1)c1nnc(-c2cnccn2)s1,inconclusive: 9.34%,–
CC(C)CNC(=O)Nc1ccccc1F,inconclusive: 0.0686%,–
COC(=O)c1ccsc1NC(=O)CSc1nnnn1Cc1ccccc1,inconclusive: -14.9%,–
Cc1c(C(=O)C(=O)NCc2ccco2)c2ccccc2n1C,inconclusive: 3.69%,–
Nc1nc(-c2ccc(Cl)cc2)nn1C(=O)c1cccs1,–,"inconclusive: 7.94 µM [falling, partial curve, poor fit]"
CCOc1cc2c3c(c1)C1(OCCO1)C(=O)N3C(C)(C)CC2C (centres undefined),inconclusive: -10.2%,–
CC1(C)CC(=O)C=C(c2cccc(Cl)c2O)C1,inconclusive: 4.1%,–
COC(=O)C1=CN(Cc2ccc(OC)c(OC)c2)C=C(C(=O)OC)C1c1cccc(O)c1,inconclusive: -16.6%,–
O=C(NCC(c1ccco1)N1CCCCC1)c1ccc(COc2ccccc2)cc1 (centres undefined),inactive: 18.1%,–
COc1ccc(-c2nc3cnccn3c2NC(C)(C)CC(C)(C)C)cc1O,–,"inconclusive: 17.8 µM [falling, single point]"
COc1ccc(NC(=O)c2ccc(Cl)cc2)c[n+]1[O-],inactive: -1.15%,–
CCOC(=O)Cc1csc(NC(=O)c2ccco2)n1,inconclusive: -17.2%,–
CCN=c1scc(-c2cccs2)n1/N=C/c1cc(OC)ccc1O,inconclusive: 23.7%,–
Cc1cc2c(c(C)c1Cl)C(c1ccc3c(c1)OCO3)CC(=O)O2 (centres undefined),inactive: -3.94%,–
COc1ccccc1C1CCN(Cc2cccc3ccccc23)CC1,inconclusive: 1.54%,–
COc1ccc(OC)c(NC(=O)c2ccc(NC(C)=O)cc2)c1,–,"inconclusive: 15.8 µM [falling, partial curve, poor fit]"

SMILES,"activity change, negative = inhibition",Potency
OCC1(O)OC[C@@H](O)[C@H]1O (some centres undefined),inconclusive: -5.8%,–
C=CCn1c(SCC(=O)N2CCN(CCO)CC2)nc2sc3c(c2c1=O)CCC3,inconclusive: 0.225%,–
Cc1ccsc1/C=N/N1CCN(Cc2ccccc2)CC1,inconclusive: 1.38%,–
CC(C)(C)NC(=O)CSC(=Nc1ccccc1F)NC#N,inconclusive: -17.2%,–
CCCn1c(=O)c(C(=O)NCCCc2ccccc2)c(O)c2ccccc21,inconclusive: 1.83%,–
CCn1cc(/C=C(\NC(=O)c2ccccc2F)C(=O)NCCCN2CCOCC2)c2ccccc21,inconclusive: -14.2%,–
O=C(N/N=C\CCc1ccccc1)c1ccco1,inconclusive: 3.44%,–
NS(=O)(=O)c1cccc(-n2cnnn2)c1,inconclusive: 0.223%,–
Cc1[nH]c2ccccc2c1/C=N/Nc1nc(Nc2ccccc2)nc(N2CCOCC2)n1,–,"inconclusive: 2.51 µM [falling, partial curve, poor fit]"
CN1CCC(Oc2ccccc2Sc2ccc(C(F)(F)F)cc2)CC1,inconclusive: -17.9%,–
N#C/C(=C\c1cccs1)c1nc2ccccc2[nH]1,inconclusive: 0.296%,–
O=C(N/N=C/c1ccco1)c1cc(-c2cccs2)[nH]n1,–,"inconclusive: 20.6 µM [falling, partial curve, poor fit]"
O=C(Cc1n[nH]c(=O)c2ccccc12)OCC(=O)c1ccc(OC(F)F)cc1OC(F)F,inactive: -10.4%,–
COC(=O)c1ccc2nc(C)cc(Nc3ccc(N(C)C)cc3)c2c1,inconclusive: 8.73%,–
CN(C)C(=O)c1ccc(NC(=O)COC(=O)Cn2cc(C(F)(F)F)ccc2=O)cc1,inconclusive: 11.1%,–
COc1cc(/C=C2\SC(=S)N(CCC(=O)N3CCCCC3)C2=O)cc(OC)c1OC,–,"inconclusive: 15.8 µM [falling, single point]"
O=C(NC(Cc1ccccc1)C(=O)O)OCc1ccccc1 (centres undefined),inconclusive: 6.58%,–
Cc1cc(NS(=O)(=O)c2ccc(NC(=O)c3ccc(F)cc3)cc2)nc(C)n1,inconclusive: 4.48%,–
Cc1cc(C)c(S(=O)(=O)N(CC(=O)N2CCOCC2)C2CCCCC2)c(C)c1,inconclusive: 1.78%,–
COCCOC(=O)c1c(C)n(C)c2ccc(OC(=O)c3c(OC)cccc3OC)cc12,inactive: -2.11%,–
Clc1ccc2nnnc(-c3ccccc3)c2c1,–,"inconclusive: 29.1 µM [falling, single point]"

SMILES,"activity change, negative = inhibition",Potency
CCCc1nc(SCC(=O)c2ccc(F)cc2)c2ccccc2n1,inactive: -18.7%,–
O=C(NCc1ccncc1)C(=O)Nc1ccc2c(c1)OCO2,inconclusive: -27.4%,–
CC(C)Oc1nc(-c2ccccc2Cl)nc2ccccc12,inconclusive: 18.4%,–
CCn1c2ccccc2c2cc(NC(=O)c3ccco3)ccc21,inconclusive: 0.455%,–
COc1ccccc1C(=O)NC(=S)NNC(=O)c1sc2ccccc2c1Cl,–,"inconclusive: 25.9 µM [falling, single point]"
Cc1cc(=O)[nH]c2nnc(SCc3ccccc3F)n12,inactive: -7.26%,–
CC(=O)N(Cc1ccco1)C1(C(=O)NC2CCCC2)CCCCC1,inconclusive: -0.296%,–
O=C1NC(=O)C(c2cccs2)(c2cccs2)N1,inconclusive: -0.437%,–
CC(=O)C1=C(NC(=O)c2ccccc2F)C[C@@H]2[C@H]1C2(C)C,inconclusive: 29.9%,–
COc1ccc(NC(=O)CN(C)C2=NS(=O)(=O)c3ccccc32)cc1Cl,inactive: 2.74%,–
COCCN(C(=S)Nc1ccc(OC)c(Cl)c1)C1CCN(C(C)C)CC1,–,"inconclusive: 35.5 µM [falling, single point]"
COc1ccccc1CCNC(=O)C(=O)NCC1OCCCN1S(=O)(=O)c1ccc(F)cc1C (centres undefined),inactive: 0.136%,–
COc1ccc(C2/C=C\CN(C(=O)Nc3ccccc3-c3ccccc3)CC(=O)N2Cc2ccc(F)cc2)cc1 (centres undefined),inconclusive: 0.642%,–
Cc1cc(C)c(C)c(S(=O)(=O)N2CCN(c3ncnc4ccccc34)CC2)c1C,inactive: 0.648%,–
CCN(CC)CCn1c(=N)n(CC(O)c2ccc(OC)c(OC)c2)c2ccccc21 (centres undefined),inactive: 2.15%,–
O=C(O)c1cccc2c1/C(=N/Nc1ccc([N+](=O)[O-])cc1[N+](=O)[O-])c1ccccc1-2,inactive: 7.15%,–
Cc1nc(NC2=NCN(Cc3ccccc3)CN2)nc2ccccc12,inconclusive: -3.49%,–
CC(C)N(CCn1c(SCC(=O)Nc2cccnc2Cl)nc2ccccc2c1=O)C(C)C,inconclusive: 0.16%,–
O=c1[nH]c2ccccc2c(O)c1O,–,"inconclusive: 15.8 µM [falling, partial curve, poor fit]"
C=CCN(C(=O)CCC(=O)O)C1CC(=O)N(c2ccc(OC)cc2)C1=O (centres undefined),inactive: 11.3%,–
CCN1C(=NCc2ccc(OC)cc2)N[C@@H](CCc2ccccc2)[C@H](C(=O)NCc2ccc(OC)cc2)[C@H]1C,inconclusive: -11.3% and inconclusive: -14.5%,–
